The values below come from article PMC7819943, “Rice protein-binding microarrays: a tool to detect cis-acting elements near promoter regions in rice”.

By UniProt entry, the sequences of proteins in these tests, tags left out.
UniProt Q0JBA9, entry or part of it: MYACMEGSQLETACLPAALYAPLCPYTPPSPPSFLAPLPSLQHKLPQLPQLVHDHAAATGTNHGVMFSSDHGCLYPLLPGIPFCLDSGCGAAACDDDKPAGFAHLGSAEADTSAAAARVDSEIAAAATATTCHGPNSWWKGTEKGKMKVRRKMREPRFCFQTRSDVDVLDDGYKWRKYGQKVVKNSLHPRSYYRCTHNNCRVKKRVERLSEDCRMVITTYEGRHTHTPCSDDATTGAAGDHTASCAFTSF

This is one part of the list.

The assay concerns the target OsWRKY34 (Oryza sativa, UniProt Q0JBA9 1-250). Briefly: protein-binding microarray (RPBM); PBS, 2% BSA, 51.3 ng/ul salmon testes DNA, 50 uM zinc acetate, 200 nM TF, 25 C, 1 h; high values mean tight binding. The note with it: protein: recombinant; tags: N-terminal polyhistidine and DsRed monomer fusion (pET32a); label: CyDye5-dUTP incorporated in the synthesized complementary strand; 3' TTTTT single-stranded linker to array surface; dsDNA, one strand shown. Put shortly:
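In PBS with 2% BSA, salmon testes DNA and 50 µM zinc acetate, 200 nM protein was incubated on a custom Agilent array at 25 °C for 1 h and then washed off. The array had been made double-stranded by primer extension with Cy5-dUTP and blocked with 2% BSA. The proteins were transcription factors fused N-terminally to polyhistidine and DsRed, expressed in E. coli BL21-CodonPlus and purified on Ni–NTA. The binding signal is per-feature fluorescence intensity (arbitrary units) from an Axon 4000B scanner.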
In the case of “TTCCCATTTATTGGCATCCACCTACCGCTCATCATCTTCTCGGAGTCACCTAGTGCAG”, the binding signal is 8640 fluorescence intensity (a.u.). For the sequence “CTTGGGGCTGTTTCTGTTTGATACCAAATAACCAAAACTTCGGAGTCACCTAGTGCAG”, the binding signal was 8600 fluorescence intensity (a.u.).

Consider “ATATAACATATACAGAGACCATGTTTGTTTCTTTTTTTTTCGGAGTCACCTAGTGCAG”, for which the binding signal was 8440 fluorescence intensity (a.u.). Consider “ATGCCTCACCACACCCTTGTTCCTCTCCTCCCAACAATTTCGGAGTCACCTAGTGCAG”, for which the binding signal is 8640 fluorescence intensity (a.u.). As for “CTCGCAATTTTTCCCCATCACCACAGCACCACTAGACGACCGGAGTCACCTAGTGCAG”, the figure is 9600 fluorescence intensity (a.u.).

On to “CCAGATCGGTAGCTGTCTCGTCGCCGTCCCCGATCCTCCTCGGAGTCACCTAGTGCAG”, for which the binding signal is 8260 fluorescence intensity (a.u.). Turning to “GAGATGCCTTTTTTAAAAAACTTTAACAGTGATAAGTTTCCGGAGTCACCTAGTGCAG”, the binding signal is 8240 fluorescence intensity (a.u.).

Take “GTCGCCGATTTTATAAAACTTCATCTTCTCCGAGACCTTACGGAGTCACCTAGTGCAG”: the binding signal was 8120 fluorescence intensity (a.u.). Next, “AAGAAAGGCAGAAACAAAGCGGTTGCATCATTCTTTAACTCGGAGTCACCTAGTGCAG”: 8270 fluorescence intensity (a.u.). Consider “AATTCCTACTTTCATGTTCAGTGTTTTTAATGGTCTATGTCGGAGTCACCTAGTGCAG”, for which the binding signal is 10800 fluorescence intensity (a.u.). Next, “CACCTTACCCCGCGCGCTCTCGCCAGTAGTAGTCCACCTCCGGAGTCACCTAGTGCAG”: 9660 fluorescence intensity (a.u.). In the case of “TCAGTTAATTGGTTTGAATCTTCTCTTCTCCTCCGTTTCCCGGAGTCACCTAGTGCAG”, the binding signal is 9050 fluorescence intensity (a.u.).

For the sequence “CACTTACCCCGCACCACATCGCCACCCAGGTAAACCCCGGCGGAGTCACCTAGTGCAG”, the binding signal is 8730 fluorescence intensity (a.u.).

For “TCCAGTATTCCGGTCAGCCTTCATCAATCATCATCCCTTCCGGAGTCACCTAGTGCAG”, the binding signal is 9680 fluorescence intensity (a.u.). Next, “ATGGATAATAAAGTATTGTTTCATTCTAGTACTTTTTTATCGGAGTCACCTAGTGCAG”: 12000 fluorescence intensity (a.u.); “TTTTGAGTTTTTCTTACAACGTTTGACCACTCGTCTTATTCGGAGTCACCTAGTGCAG”: 8390 fluorescence intensity (a.u.); “ATATATTGATTCATACTCCCTCCGTTTCAGTCACTCGGTTCGGAGTCACCTAGTGCAG”: 8270 fluorescence intensity (a.u.). For “GCCGCGCGCCGCCGAGGCCGTCCTCCGCACCCACGACCTCCGGAGTCACCTAGTGCAG”, the binding signal was 8600 fluorescence intensity (a.u.).

On to “CACTACCCACATCGTCTCGCCGCCGTCGCCGCCGCCGGCGCGGAGTCACCTAGTGCAG”, for which the binding signal was 8780 fluorescence intensity (a.u.).

As for “GTGGTGTCAGTTTTTGTGATGGATATTTGTGTGAACTTTTCGGAGTCACCTAGTGCAG”, the binding signal was 11300 fluorescence intensity (a.u.). As for “TATACACACCTCGAGTTATGGCCATACCATCACAAGCTGACGGAGTCACCTAGTGCAG”, the figure is 8270 fluorescence intensity (a.u.); as for “ACACAAGGCTCACCATGCATCAACCTCACGTGGGGTCCAACGGAGTCACCTAGTGCAG”, 10100 fluorescence intensity (a.u.). For the sequence “ACCTACCGGTCCAATTTACCTCTTCATGTAAACGTCTACTCGGAGTCACCTAGTGCAG”, the binding signal is 8630 fluorescence intensity (a.u.). On to “TATTGTACTCAGACGTTCAATTCCCAAGTTCTTGCACTATCGGAGTCACCTAGTGCAG”, for which the binding signal is 8070 fluorescence intensity (a.u.). Consider “AAATAATTTCTATCCTGACGCGACTATAAATCGGACGTCCCGGAGTCACCTAGTGCAG”, for which the binding signal was 8460 fluorescence intensity (a.u.).

In the case of “AGCATCACGTCATCGTCATCGTCTTCAACACGTCCTCGCTCGGAGTCACCTAGTGCAG”, the binding signal is 9460 fluorescence intensity (a.u.). For the sequence “ATAAATTGTAGCTTGTGACTTTTCACTAATTCTCACGTATCGGAGTCACCTAGTGCAG”, the binding signal is 9250 fluorescence intensity (a.u.). In the case of “CATTATTATAAGACGCTTGACTTTTTTTTGGTCAAAATCCCGGAGTCACCTAGTGCAG”, the binding signal is 8730 fluorescence intensity (a.u.). As to “TCCGCCTCCGCCTCCGCCTCCGCGATCCGCCTCCGCCTCGCGGAGTCACCTAGTGCAG”, the binding signal was 9600 fluorescence intensity (a.u.). As to “ATCCATTTCCAGCTTCGTCTTCATCTTGGCTTGGCGCGCTCGGAGTCACCTAGTGCAG”, the binding signal is 17800 fluorescence intensity (a.u.). As for “GGCGAAATTTTCTCTACTGCTCGCTTACAATCTCAGTAGTCGGAGTCACCTAGTGCAG”, the figure is 12300 fluorescence intensity (a.u.).

Take “GCCCGTACCCCTCTCCCACCACTCCATCCTGGCCGTCCGACGGAGTCACCTAGTGCAG”: the binding signal is 9950 fluorescence intensity (a.u.). “AATCTTCTATTTTACACTTTTATTTATGTCAGAATCATATCGGAGTCACCTAGTGCAG”: the binding signal was 9380 fluorescence intensity (a.u.). Next, “CTGATCATGACTTCCCGATTTGTGTCTCTTCTTTTTTCGCCGGAGTCACCTAGTGCAG”: 10600 fluorescence intensity (a.u.); “CCGGACAACTCGACCGACCATGGCTCGAGCATCACAACTTCGGAGTCACCTAGTGCAG”: 8390 fluorescence intensity (a.u.); “AGTTGATCGTGGCGAGGTGTTTTACAATTGTCTCTATCCGCGGAGTCACCTAGTGCAG”: 8790 fluorescence intensity (a.u.).

In the case of “GACCCCTGTGATCCCAATTAACCACCCGCCACCGCCACGCCGGAGTCACCTAGTGCAG”, the binding signal is 8150 fluorescence intensity (a.u.).

For “ACTCCGTGATCACCACATTTTATTCTAGCGAGCATGTGACCGGAGTCACCTAGTGCAG”, the binding signal was 8310 fluorescence intensity (a.u.). Regarding “TTTCTCCATGCGACCATGCCTACTGCATCTTATGTTGGTCCGGAGTCACCTAGTGCAG”, the binding signal was 9440 fluorescence intensity (a.u.). “GCCACTTCACCACCAGCAGCAGCAGGGGCATCCACCGTACCGGAGTCACCTAGTGCAG”: the binding signal was 8250 fluorescence intensity (a.u.). For “GGATGTGTTGGTAATGCTTTGGATTAAACTTATTGATGACCGGAGTCACCTAGTGCAG”, the binding signal is 9030 fluorescence intensity (a.u.).

In the case of “TCTAAGAACATCTTTTCCTTTGGCGTTTTGACCGAATGAGCGGAGTCACCTAGTGCAG”, the binding signal is 8060 fluorescence intensity (a.u.). “AAGGTTTCCGGGTATGTTTTTTAATCCGTCATCCCACTCACGGAGTCACCTAGTGCAG”: the binding signal was 10500 fluorescence intensity (a.u.). Take “TTAGAACAACAAATAATTGTTATGTTAGCGTCTTTTTTTTCGGAGTCACCTAGTGCAG”: the binding signal was 8680 fluorescence intensity (a.u.).

Regarding “ATTTCTAGTCATGCCCGATAACCACTCCGGCACGACCACGCGGAGTCACCTAGTGCAG”, the binding signal was 8150 fluorescence intensity (a.u.). As for “GTTATTTCTCCAAATATCGGACGCCGCTCACACTCTGCCTCGGAGTCACCTAGTGCAG”, the figure is 8300 fluorescence intensity (a.u.). Next, “ATTTGGTTCCTAGTAGTTTTTTTGTGTTTTGAACCCCAAACGGAGTCACCTAGTGCAG”: 9090 fluorescence intensity (a.u.); “CTCTCTCTCTCTCTGCAGCTAGGCCATATGCATCTCTCCTCGGAGTCACCTAGTGCAG”: 9070 fluorescence intensity (a.u.); “GGGTTGATGTGGCATGTTTGTATGTAGGTTGTAGGAGTGCCGGAGTCACCTAGTGCAG”: 9330 fluorescence intensity (a.u.). Consider “TGTCCAAGCATGCACTTTACATTGCTATCGACTTTTCATCCGGAGTCACCTAGTGCAG”, for which the binding signal is 10100 fluorescence intensity (a.u.). Regarding “TCAGCCACGACGCCGTCTCCTCCTGCCATGACGCCTTCGTCGGAGTCACCTAGTGCAG”, the binding signal is 8390 fluorescence intensity (a.u.). For the sequence “CATATGATATGACCCTCACAGGTACTACTACTATTTTACTCGGAGTCACCTAGTGCAG”, the binding signal was 9140 fluorescence intensity (a.u.). Turning to “GTTTCCTCGCATCTTGCAACATGTTTTGTCCATCTTATTTCGGAGTCACCTAGTGCAG”, the binding signal was 15400 fluorescence intensity (a.u.). As for “CGCCGTCCACTCCATCCATCGCGTCACCATCCCTTCGCCGCGGAGTCACCTAGTGCAG”, the binding signal was 14600 fluorescence intensity (a.u.).
